# Measurements: the supplement of paper PMC8728848
# The other results are listed elsewhere or left out.
# B1: Mnn9-2N3 (Aspergillus fumigatus) (protein)
# chain: MAVARRMRRTNPITLLLAAILAIGFFIFVLSPSTTSASPVKAGSASSSSTSQQRREDNAAENPLSPPTKPFFKSQPVRHDGQQAPPPVVQYNLNQLSSTSTSAANGERILILTPMARFVPEYWDNVVKLTYPHELISIGFIIPKNKEGNAALAALEAAIAKTQSGPIDKRFASISILRQDFEPPLQSQDEKERHKISNQKARRESMSRARNSLLFTTLGPATAWVLWLDADIVETPPTLIQDLTAHDHPVLVPNCYQRYYNSEKKKMDVRPYDYNSWIDSSTAQSMAAEMGPDEILLEGYAEMPTYRTLMAHLADTANPNPKKVIELDGVGGTALMVKAEVHRDGAMFPAFPFYHLVETEGFAKMAKRLGYSVYGLPDYFVSRNFFFFFFFFFFG
# Legend:
# Experiment in all cases: glycan array binding signal (z-score within array); higher = stronger binding
# Conditions in all cases: glycan notation: IUPAC condensed, linker removed
# [1] = molecular target: Gal(b1-3)GlcNAc(b1-3)Gal(b1-4)GlcNAc(b1-2)[Gal(b1-3)GlcNAc(b1-3)Gal(b1-4)GlcNAc(b1-6)]Man(a1-6)[Gal(b1-3)GlcNAc(b1-3)Gal(b1-4)GlcNAc(b1-2)Man(a1-3)]Man(b1-4)GlcNAc(b1-4)[Fuc(a1-6)]GlcNAc
# Procedure, shortened: (§1)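 The Consortium for Functional Glycomics database supplied 3228 glycan arrays, of which those lacking an available protein sequence were dropped. The binding signal, a within-array Z-score, was averaged across arrays of the same protein sequence and across linkers. Negative scores can be read as non-binding.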
# [2] = molecular target: Gal(b1-3)GlcNAc(b1-3)Gal(b1-4)GlcNAc(b1-3)Gal(b1-4)GlcNAc(b1-2)[Gal(b1-3)GlcNAc(b1-3)Gal(b1-4)GlcNAc(b1-3)Gal(b1-4)GlcNAc(b1-6)]Man(a1-6)[Gal(b1-3)GlcNAc(b1-3)Gal(b1-4)GlcNAc(b1-3)Gal(b1-4)GlcNAc(b1-2)Man(a1-3)]Man(b1-4)GlcNAc(b1-4)[Fuc(a1-6)]GlcNAc
# Procedure, shortened: as §1
# [3] = molecular target: Gal(b1-3)GlcNAc(b1-3)Gal(b1-4)GlcNAc(b1-6)[Gal(b1-3)GlcNAc(b1-3)]Gal(b1-4)Glc
# Procedure, shortened: as §1
# [4] = molecular target: Gal(b1-3)GlcNAc(b1-3)Gal(b1-4)[Fuc(a1-3)]GlcNAc
# Procedure, shortened: as §1
# [5] = molecular target: Gal(b1-3)GlcNAc(b1-3)Gal(b1-4)[Fuc(a1-3)]GlcNAc(b1-6)[Gal(b1-3)GlcNAc(b1-3)]Gal(b1-4)Glc
# Procedure, shortened: as §1
# [6] = molecular target: Gal(b1-3)GlcNAc(b1-3)GalNAc
# Procedure, shortened: as §1
# [7] = molecular target: Gal(b1-3)GlcNAc(b1-6)Gal(b1-4)GlcNAc
# Procedure, shortened: as §1
# [8] = molecular target: Gal(b1-3)GlcNAc(b1-6)GalNAc
# Procedure, shortened: as §1
# [9] = molecular target: Gal(b1-3)GlcNAc(b1-6)[Gal(b1-3)]GalNAc
# Procedure, shortened: as §1
# Gal(b1-3)GlcNAc6S = molecular target: Gal(b1-3)GlcNAc6S
# Procedure, shortened: as §1
# [10] = molecular target: Gal(b1-3)[Fuc(a1-4)]GlcNAc
# Procedure, shortened: as §1
# [11] = molecular target: Gal(b1-3)[Fuc(a1-4)]GlcNAc(b1-2)Man
# Procedure, shortened: as §1
# [12] = molecular target: Gal(b1-3)[Fuc(a1-4)]GlcNAc(b1-2)Man(a1-3)[Gal(b1-3)[Fuc(a1-4)]GlcNAc(b1-2)Man(a1-6)]Man(b1-4)GlcNAc(b1-4)[Fuc(a1-6)]GlcNAc
# Procedure, shortened: as §1
# [13] = molecular target: Gal(b1-3)[Fuc(a1-4)]GlcNAc(b1-3)Gal(b1-3)[Fuc(a1-4)]GlcNAc
# Procedure, shortened: as §1
# [14] = molecular target: Gal(b1-3)[Fuc(a1-4)]GlcNAc(b1-3)Gal(b1-4)[Fuc(a1-3)]GlcNAc
# Procedure, shortened: as §1
# [15] = molecular target: Gal(b1-3)[Fuc(a1-4)]GlcNAc(b1-6)GalNAc
# Procedure, shortened: as §1
# [16] = molecular target: Gal(b1-3)[GlcNAc(b1-6)]GalNAc
# Procedure, shortened: as §1
# [17] = molecular target: Gal(b1-3)[Neu5Ac(a2-6)]GalNAc
# Procedure, shortened: as §1
# [18] = molecular target: Gal(b1-3)[Neu5Ac(a2-6)]GlcNAc(b1-4)Gal(b1-4)Glc
# Procedure, shortened: as §1
# [19] = molecular target: Gal(b1-3)[Neu5Ac(b2-6)]GalNAc
# Procedure, shortened: as §1
# Gal(b1-4)Gal = molecular target: Gal(b1-4)Gal
# Procedure, shortened: as §1
# [20] = molecular target: Gal(b1-4)GalNAc(a1-3)[Fuc(a1-2)]Gal(b1-4)GlcNAc
# Procedure, shortened: as §1
# [21] = molecular target: Gal(b1-4)GalNAc(b1-3)[Fuc(a1-2)]Gal(b1-4)GlcNAc
# Procedure, shortened: as §1
# Gal(b1-4)Glc = molecular target: Gal(b1-4)Glc
# Procedure, shortened: as §1
# Gal(b1-4)Glc6S = molecular target: Gal(b1-4)Glc6S
# Procedure, shortened: as §1
# Gal(b1-4)GlcNAc = molecular target: Gal(b1-4)GlcNAc
# Procedure, shortened: as §1
# [22] = molecular target: Gal(b1-4)GlcNAc(a1-6)Gal(b1-4)GlcNAc
# Procedure, shortened: as §1
# Gal(b1-4)GlcNAc(b1-2)Man = molecular target: Gal(b1-4)GlcNAc(b1-2)Man
# Procedure, shortened: as §1
# [23] = molecular target: Gal(b1-4)GlcNAc(b1-2)Man(a1-3)Man(b1-4)GlcNAc(b1-4)GlcNAc
# Procedure, shortened: as §1
# [24] = molecular target: Gal(b1-4)GlcNAc(b1-2)Man(a1-3)[Gal(b1-4)GlcNAc(b1-2)Man(a1-6)]Man(b1-4)GlcNAc(b1-4)GlcNAc
# Procedure, shortened: as §1
# [25] = molecular target: Gal(b1-4)GlcNAc(b1-2)Man(a1-3)[Gal(b1-4)GlcNAc(b1-2)Man(a1-6)]Man(b1-4)GlcNAc(b1-4)[Fuc(a1-6)]GlcNAc
# Procedure, shortened: as §1
# [26] = molecular target: Gal(b1-4)GlcNAc(b1-2)Man(a1-3)[Gal(b1-4)GlcNAc(b1-2)Man(a1-6)][Gal(b1-4)GlcNAc(b1-4)]Man(b1-4)GlcNAc(b1-4)[Fuc(a1-6)]GlcNAc
# Procedure, shortened: as §1
# [27] = molecular target: Gal(b1-4)GlcNAc(b1-2)Man(a1-3)[Gal(b1-4)GlcNAc(b1-2)Man(a1-6)][GlcNAc(b1-4)]Man(b1-4)GlcNAc(b1-4)[Fuc(a1-6)]GlcNAc
# Procedure, shortened: as §1
# [28] = molecular target: Gal(b1-4)GlcNAc(b1-2)Man(a1-3)[GlcNAc(b1-2)Man(a1-6)]Man(b1-4)GlcNAc(b1-4)GlcNAc
# Procedure, shortened: as §1
# [29] = molecular target: Gal(b1-4)GlcNAc(b1-2)Man(a1-3)[GlcNAc(b1-4)][Gal(b1-4)GlcNAc(b1-2)Man(a1-6)]Man(b1-4)GlcNAc(b1-4)GlcNAc
# Procedure, shortened: as §1
# [30] = molecular target: Gal(b1-4)GlcNAc(b1-2)Man(a1-3)[Man(a1-6)]Man(b1-4)GlcNAc(b1-4)GlcNAc
# Procedure, shortened: as §1
# [31] = molecular target: Gal(b1-4)GlcNAc(b1-2)Man(a1-6)Man(b1-4)GlcNAc(b1-4)GlcNAc
# Procedure, shortened: as §1
# [32] = molecular target: Gal(b1-4)GlcNAc(b1-2)Man(a1-6)[GlcNAc(b1-2)Man(a1-3)]Man(b1-4)GlcNAc(b1-4)GlcNAc
# Procedure, shortened: as §1
binder,measurement,setting,value
B1,glycan array binding signal (z-score),[1],0.414
same,glycan array binding signal (z-score),[2],0.404
same,glycan array binding signal (z-score),[3],-0.057
same,glycan array binding signal (z-score),[4],0.699
same,glycan array binding signal (z-score),[5],-1.63
same,glycan array binding signal (z-score),[6],-0.408
same,glycan array binding signal (z-score),[7],0.028
same,glycan array binding signal (z-score),[8],-0.101
same,glycan array binding signal (z-score),[9],-0.321
same,glycan array binding signal (z-score),Gal(b1-3)GlcNAc6S,-1.56
same,glycan array binding signal (z-score),[10],0.017
same,glycan array binding signal (z-score),[11],-0.445
same,glycan array binding signal (z-score),[12],-0.841
same,glycan array binding signal (z-score),[13],1.35
same,glycan array binding signal (z-score),[14],0.195
same,glycan array binding signal (z-score),[15],0.109
same,glycan array binding signal (z-score),[16],0.28
same,glycan array binding signal (z-score),[17],0.71
same,glycan array binding signal (z-score),[18],0.073
same,glycan array binding signal (z-score),[19],0.319
same,glycan array binding signal (z-score),Gal(b1-4)Gal,-0.437
same,glycan array binding signal (z-score),[20],0.14
same,glycan array binding signal (z-score),[21],0.347
same,glycan array binding signal (z-score),Gal(b1-4)Glc,0.681
same,glycan array binding signal (z-score),Gal(b1-4)Glc6S,-0.238
same,glycan array binding signal (z-score),Gal(b1-4)GlcNAc,0.799
same,glycan array binding signal (z-score),[22],0.224
same,glycan array binding signal (z-score),Gal(b1-4)GlcNAc(b1-2)Man,0.107
same,glycan array binding signal (z-score),[23],-0.05
same,glycan array binding signal (z-score),[24],0.339
same,glycan array binding signal (z-score),[25],-0.584
same,glycan array binding signal (z-score),[26],-0.424
same,glycan array binding signal (z-score),[27],0.049
same,glycan array binding signal (z-score),[28],1.86
same,glycan array binding signal (z-score),[29],-0.193
same,glycan array binding signal (z-score),[30],-0.345
same,glycan array binding signal (z-score),[31],-0.394
same,glycan array binding signal (z-score),[32],-0.198

# Some of the entries above, set out differently:
binder	measurement	setting	value
B1	glycan array binding signal (z-score)	[9]	-0.321
same	glycan array binding signal (z-score)	Gal(b1-3)GlcNAc6S	-1.56
